For assay [1], the target named is T1, CHMP7 (endogenous) (human (endogenous in iPSC derived neurons and postmortem cortex)) (UniProt Q8WUX9).
T1 sequence: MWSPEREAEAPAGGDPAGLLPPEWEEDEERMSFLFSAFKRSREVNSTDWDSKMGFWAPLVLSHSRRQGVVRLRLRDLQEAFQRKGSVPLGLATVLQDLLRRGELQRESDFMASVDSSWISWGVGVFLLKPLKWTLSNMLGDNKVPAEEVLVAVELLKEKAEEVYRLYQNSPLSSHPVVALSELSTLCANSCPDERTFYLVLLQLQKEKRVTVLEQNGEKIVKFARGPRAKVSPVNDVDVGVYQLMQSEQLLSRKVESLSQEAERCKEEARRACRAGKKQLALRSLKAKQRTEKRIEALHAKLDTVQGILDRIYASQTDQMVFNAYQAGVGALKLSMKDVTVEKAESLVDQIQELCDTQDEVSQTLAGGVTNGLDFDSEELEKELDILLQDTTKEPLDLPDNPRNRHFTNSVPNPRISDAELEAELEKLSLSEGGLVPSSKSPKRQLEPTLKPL
Kind of assay: proximity ligation; Duolink PLA on formalin fixed paraffin embedded postmortem human motor and occipital cortex (layer V), control and sALS cases; nuclear PLA spots counted.

Sequences of proteins named here, by UniProt entry; tags and fusion partners are left off.
UniProt Q9UQN3: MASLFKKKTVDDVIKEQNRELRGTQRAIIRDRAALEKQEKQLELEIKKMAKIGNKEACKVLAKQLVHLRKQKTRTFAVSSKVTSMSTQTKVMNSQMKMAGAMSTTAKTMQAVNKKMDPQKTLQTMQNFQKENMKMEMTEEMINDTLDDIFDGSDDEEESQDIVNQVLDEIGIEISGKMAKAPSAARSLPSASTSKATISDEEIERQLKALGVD

For assay [2], the target named is T1, CHMP7 (endogenous) (human (endogenous in iPSC derived neurons and postmortem cortex)). Put plainly: proximity ligation; Duolink PLA on fixed, permeabilised control and sALS iPSC derived neurons with primary antibodies against CHMP2B and CHMP7; nuclear PLA spots counted at day 18, 25 and 32 of differentiation.
Assay [3] concerns the target T2, CHMP7 His (UniProt Q8WUX9).
T2 sequence: T1 sequence
Kind of assay: pull-down; 2 µg of each recombinant protein (1:1) in 50 µL binding buffer (50 mM Tris pH 7.4, 150 mM NaCl, 2 mM MgCl2, 2 mM CaCl2, 10% glycerol, 0.5% NP-40, 1 mM DTT), 2 h at 4 °C, then magnetic GST or His beads 1 h at 4 °C; bound fraction on SDS-PAGE, SimplyBlue stain; both purified.

Assay [4] addresses T3, CHMP7 GST (UniProt Q8WUX9).
T3 sequence: T1 sequence
The description is as above.

These are yes or no findings as the source states them, for the method shown. For some of these results: Binding seen in cells or lysates may run through a third protein. Some entries that bind do so weakly or less than the wild type. For some of these results: Sequences can lack the tags named with a protein.

Turning to “CHMP2B (endogenous) (from UniProt Q9UQN3 1-213)”, the binding result in assay [1] and in assay [2] was “binds” throughout.

For CHMP2B GST (from UniProt Q9UQN3 1-213), in assay [3], the binding result is “binds”.

On to CHMP2B His (from UniProt Q9UQN3 1-213), for which the binding entry in assay [4] is recorded as “binds”.

Values taken from paper PMC11662732.
